What was measured:
[1] = Direct lanthanide complexation with empty cages; settings: for abundance - 1 week: Supp. Fig. 11B; for abundance - 1 hour: Supp. Fig. 11A
[2] = LC-MS/MS method validation (LOD, LOQ) for HO2CPh{Ln} tags
[3] = 1, 2 and 5 nM triplicate solutions in presence of mouse liver lysate (matrix blank), HO2CPh{Y} internal standard, 10 mM NH4OAc diluent, n = 9 points

SMILES | abundance - 1 week ([1]; direct complexation with CaII) | abundance - 1 week ([1]; direct complexation with CeIII) | abundance - 1 week ([1]; direct complexation with DyIII) | abundance - 1 week ([1]; direct complexation with ErIII) | abundance - 1 week ([1]; direct complexation with EuIII) | abundance - 1 week ([1]; direct complexation with GdIII) | abundance - 1 week ([1]; direct complexation with HoIII) | abundance - 1 week ([1]; direct complexation with LaIII) | abundance - 1 week ([1]; direct complexation with LuIII) | abundance - 1 week ([1]; direct complexation with NdIII) | abundance - 1 week ([1]; direct complexation with PrIII) | abundance - 1 week ([1]; direct complexation with ScIII) | abundance - 1 week ([1]; direct complexation with SmIII) | abundance - 1 week ([1]; direct complexation with TbIII) | abundance - 1 week ([1]; direct complexation with TmIII) | abundance - 1 week ([1]; direct complexation with YIII) | abundance - 1 week ([1]; direct complexation with YbIII) | abundance - 1 hour ([1]; direct complexation with CaII) | abundance - 1 hour ([1]; direct complexation with CeIII) | abundance - 1 hour ([1]; direct complexation with DyIII) | also measured
O=C(O)CN1CCN2CCN(CC(=O)O)CCN(CC1)Cc1cccc(n1)-c1cn(nn1)Cc1cc(-c3ccccc3)cc(n1)C2 [1,4-cz-PhL^1] | 76.6% | 1.5% | 29.2% | 26.8% | 47.9% | 47.9% | 27.7% | 89.7% | 36.0% | 88.9% | 91.7% | 97.5% | 60.5% | 31.2% | 24.6% | 41.3% | 37.5% |  |  |  | 
O=C([O-])CN1CCN2CCN(CC(=O)[O-])CCN(CC1)Cc1cccc(n1)-c1cn(nn1)Cc1cc(-c3ccccc3)cc(n1)C2.[Ca+2] [1,4-cz-[Ca(PhL1)]] | 21.0% | 0.0% | 0.6% | 0.5% | 0.8% | 0.8% | 0.6% | 2.5% | 0.7% | 1.3% | 1.6% | 1.0% | 0.8% | 0.6% | 0.4% | 1.0% | 0.5% |  |  |  | 
O=C(O)CN1CCN2CCN(CC(=O)O)CCN(CC1)Cc1cccc(n1)-c1cnnn1Cc1cc(-c3ccccc3)cc(n1)C2 [1,5-cz-PhL^1] |  |  |  |  |  |  |  |  |  |  |  |  |  |  |  |  |  | 2.7% | 76.4% | 83.8% | abundance - 1 hour ([1]; direct complexation with ErIII): 87.7%; abundance - 1 hour ([1]; direct complexation with EuIII): 84.9%; abundance - 1 hour ([1]; direct complexation with GdIII): 80.3%; abundance - 1 hour ([1]; direct complexation with HoIII): 81.6%; abundance - 1 hour ([1]; direct complexation with LaIII): 82.2%; abundance - 1 hour ([1]; direct complexation with LuIII): 85.8%; abundance - 1 hour ([1]; direct complexation with NdIII): 79.1%; abundance - 1 hour ([1]; direct complexation with PrIII): 81.1%; abundance - 1 hour ([1]; direct complexation with ScIII): 80.6%; abundance - 1 hour ([1]; direct complexation with SmIII): 82.8%; abundance - 1 hour ([1]; direct complexation with TbIII): 85.2%; abundance - 1 hour ([1]; direct complexation with TmIII): 85.6%; abundance - 1 hour ([1]; direct complexation with YIII): 87.2%; abundance - 1 hour ([1]; direct complexation with YbIII): 85.4%
O=C([O-])CN1CCN2CCN(CC(=O)[O-])CCN(CC1)Cc1cccc(n1)-c1cnnn1Cc1cc(-c3ccc(C(=O)O)cc3)cc(n1)C2.[Lu+3] [HO2CPh{Lu}] |  |  |  |  |  |  |  |  |  |  |  |  |  |  |  |  |  |  |  |  | accuracy: R (recovery) ([2]; 10 nM pentaplicate solutions in mouse liver matrix blank, HO2CPh{Y} internal standard, n = 5): 101.56%; accuracy: u(R) (recovery uncertainty) ([2]; 10 nM pentaplicate solutions in mouse liver matrix blank, n = 5): 7.4%; limit of detection (LOD) [2, 3]: 0.57 nM; limit of quantification (LOQ) [2, 3]: 1.70 nM; linearity: linear ([2]; F-test against Fcrit, duplicate calibration solutions): yes; linearity: F ([2]; F-test, duplicate calibration solutions, Fcrit 3.97 (Lu), 3.58 (Tm)): 0.07; repeatability (precision): repeatable ([2]; c 50.0 nM, pentaplicate solutions in mouse liver matrix blank): yes; repeatability (precision): rel. std. dev. ([2]; c 50.0 nM, pentaplicate solutions in mouse liver matrix blank, HO2CPh{Y} internal standard): 3.3%; accuracy: accurate ([2]; t-test against tcrit 2.78, 10 nM pentaplicate solutions): yes; accuracy: t ([2]; t-test, 10 nM pentaplicate solutions, tcrit 2.78): 0.21
O=C([O-])CN1CCN2CCN(CC(=O)[O-])CCN(CC1)Cc1cccc(n1)-c1cnnn1Cc1cc(-c3ccccc3)cc(n1)C2.[Ca+2] [Ph{Ca}] |  |  |  |  |  |  |  |  |  |  |  |  |  |  |  |  |  | 96.3% | 19.3% | 14.6% | abundance - 1 hour ([1]; direct complexation with ErIII): 10.4%; abundance - 1 hour ([1]; direct complexation with EuIII): 13.3%; abundance - 1 hour ([1]; direct complexation with GdIII): 17.9%; abundance - 1 hour ([1]; direct complexation with HoIII): 16.8%; abundance - 1 hour ([1]; direct complexation with LaIII): 15.5%; abundance - 1 hour ([1]; direct complexation with LuIII): 13.0%; abundance - 1 hour ([1]; direct complexation with NdIII): 18.8%; abundance - 1 hour ([1]; direct complexation with PrIII): 16.9%; abundance - 1 hour ([1]; direct complexation with ScIII): 18.0%; abundance - 1 hour ([1]; direct complexation with SmIII): 15.3%; abundance - 1 hour ([1]; direct complexation with TbIII): 12.9%; abundance - 1 hour ([1]; direct complexation with TmIII): 12.9%; abundance - 1 hour ([1]; direct complexation with YIII): 11.8%; abundance - 1 hour ([1]; direct complexation with YbIII): 11.7%
